Patent US20050272637A1 (OREGON HEALTH AND SCIENCE UNIVERSITY, published 2005)
Results are given in words; binding and its absence hold for the method and conditions named. For some of these results: In cells and extracts the contact can be indirect. Some entries that bind do so weakly or less than the wild type.

By UniProt entry, the sequences of proteins in these tests, tags left out. Where a name states a change or a piece, a line headed by the entry shows the natural chain unless it says otherwise.
UniProt P08069: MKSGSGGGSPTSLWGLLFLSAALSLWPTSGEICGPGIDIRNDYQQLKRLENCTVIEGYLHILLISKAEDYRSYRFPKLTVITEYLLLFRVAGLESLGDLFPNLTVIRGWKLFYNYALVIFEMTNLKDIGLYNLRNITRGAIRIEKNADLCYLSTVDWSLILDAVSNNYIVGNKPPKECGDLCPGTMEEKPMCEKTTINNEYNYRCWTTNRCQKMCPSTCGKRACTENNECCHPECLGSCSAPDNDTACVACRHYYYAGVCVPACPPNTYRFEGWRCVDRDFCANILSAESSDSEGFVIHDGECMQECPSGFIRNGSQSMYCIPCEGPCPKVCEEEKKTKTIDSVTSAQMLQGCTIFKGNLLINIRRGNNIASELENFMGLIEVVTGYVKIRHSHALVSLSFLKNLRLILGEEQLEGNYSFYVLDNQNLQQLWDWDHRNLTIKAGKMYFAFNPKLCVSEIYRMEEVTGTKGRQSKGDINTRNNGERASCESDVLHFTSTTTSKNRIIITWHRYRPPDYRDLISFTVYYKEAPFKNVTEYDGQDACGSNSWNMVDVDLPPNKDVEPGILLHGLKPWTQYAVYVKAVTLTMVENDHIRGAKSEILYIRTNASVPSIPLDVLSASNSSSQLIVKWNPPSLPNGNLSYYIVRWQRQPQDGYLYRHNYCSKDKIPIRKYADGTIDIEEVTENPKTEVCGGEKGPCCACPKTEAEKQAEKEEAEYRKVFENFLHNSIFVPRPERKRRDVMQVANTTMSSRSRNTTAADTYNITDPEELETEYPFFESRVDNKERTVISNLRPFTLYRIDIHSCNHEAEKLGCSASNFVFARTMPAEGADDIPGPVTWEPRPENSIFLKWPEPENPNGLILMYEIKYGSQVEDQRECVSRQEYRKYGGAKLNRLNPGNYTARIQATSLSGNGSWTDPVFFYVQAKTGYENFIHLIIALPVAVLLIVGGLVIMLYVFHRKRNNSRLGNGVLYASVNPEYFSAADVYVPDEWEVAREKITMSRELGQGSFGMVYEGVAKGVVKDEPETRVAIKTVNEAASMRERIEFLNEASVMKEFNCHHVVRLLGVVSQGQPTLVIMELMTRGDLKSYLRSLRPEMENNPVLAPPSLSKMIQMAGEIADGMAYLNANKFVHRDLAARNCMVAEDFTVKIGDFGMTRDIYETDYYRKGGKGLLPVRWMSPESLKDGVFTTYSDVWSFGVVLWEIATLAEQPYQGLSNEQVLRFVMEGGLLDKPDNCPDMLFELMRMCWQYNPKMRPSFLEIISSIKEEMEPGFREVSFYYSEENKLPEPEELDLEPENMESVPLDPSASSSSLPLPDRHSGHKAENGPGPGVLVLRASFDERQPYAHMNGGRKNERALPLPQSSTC
UniProt P21860: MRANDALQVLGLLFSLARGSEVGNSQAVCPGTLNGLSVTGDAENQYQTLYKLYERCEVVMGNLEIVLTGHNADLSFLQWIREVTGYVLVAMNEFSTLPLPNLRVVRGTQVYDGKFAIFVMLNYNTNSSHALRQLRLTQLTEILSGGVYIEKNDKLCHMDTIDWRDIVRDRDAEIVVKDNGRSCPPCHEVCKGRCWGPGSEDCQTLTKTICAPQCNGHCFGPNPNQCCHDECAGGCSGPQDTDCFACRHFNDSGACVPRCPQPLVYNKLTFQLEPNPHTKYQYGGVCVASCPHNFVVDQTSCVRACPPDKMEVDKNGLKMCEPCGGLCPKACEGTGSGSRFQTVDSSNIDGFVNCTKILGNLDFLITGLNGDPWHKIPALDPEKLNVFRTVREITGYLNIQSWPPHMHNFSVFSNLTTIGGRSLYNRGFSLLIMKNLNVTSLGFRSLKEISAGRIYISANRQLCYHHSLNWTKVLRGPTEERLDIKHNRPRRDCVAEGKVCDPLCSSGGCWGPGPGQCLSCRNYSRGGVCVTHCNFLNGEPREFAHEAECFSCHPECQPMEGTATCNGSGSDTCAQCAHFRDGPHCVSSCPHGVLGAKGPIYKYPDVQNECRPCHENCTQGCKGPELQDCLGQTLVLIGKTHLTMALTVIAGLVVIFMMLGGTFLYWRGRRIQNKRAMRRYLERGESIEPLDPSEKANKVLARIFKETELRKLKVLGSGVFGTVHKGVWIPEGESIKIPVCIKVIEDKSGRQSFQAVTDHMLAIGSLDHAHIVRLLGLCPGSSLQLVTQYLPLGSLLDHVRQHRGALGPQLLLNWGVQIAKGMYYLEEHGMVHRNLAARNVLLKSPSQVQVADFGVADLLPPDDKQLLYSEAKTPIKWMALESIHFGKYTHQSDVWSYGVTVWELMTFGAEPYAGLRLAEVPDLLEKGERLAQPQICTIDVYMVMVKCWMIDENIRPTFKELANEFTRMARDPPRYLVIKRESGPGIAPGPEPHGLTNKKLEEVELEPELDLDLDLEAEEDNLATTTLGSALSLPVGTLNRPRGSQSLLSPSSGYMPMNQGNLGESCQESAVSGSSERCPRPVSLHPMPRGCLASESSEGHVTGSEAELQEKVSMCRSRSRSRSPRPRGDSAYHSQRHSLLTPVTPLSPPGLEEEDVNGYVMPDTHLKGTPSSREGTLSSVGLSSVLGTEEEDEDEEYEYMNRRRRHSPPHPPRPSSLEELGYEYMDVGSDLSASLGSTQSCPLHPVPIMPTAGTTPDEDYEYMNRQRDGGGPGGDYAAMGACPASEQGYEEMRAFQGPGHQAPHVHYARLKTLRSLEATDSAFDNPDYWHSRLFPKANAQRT

Experiments:
[1] = target: IGF-1R, insulin-like growth factor 1 receptor (human) (UniProt P08069); test: pull-down, Western blot (FIG. 3A)
[2] = target: HER-3 (erbB-3), human receptor, endogenous on MCF7 breast cancer cells (human) (UniProt P21860); test: conclusion from the pull-down assays
[3] = target: IGF-1R, insulin-like growth factor 1 receptor (human) (UniProt P08069); test: conclusion from the pull-down assays
[4] = target: HER-3 (erbB-3), human receptor, endogenous on MCF7 breast cancer cells (human) (UniProt P21860); test: pull-down and cell ELISA (FIGS. 3A and 3B)
[5] = target: IGF-1R, insulin-like growth factor 1 receptor (human) (UniProt P08069); test: pull-down and cell ELISA (FIGS. 3A and 3B)
[6] = target: HER-3 (erbB-3), human receptor, endogenous on MCF7 breast cancer cells (human) (UniProt P21860); test: Western blot analysis of Int8 binding (FIG. 4B)
[7] = target: purified (wild-type) HER-3 ectodomain expressed in stably transfected CHO cells (human) (UniProt P21860); test: Western blot analysis of Int8 binding (FIG. 4C)
[8] = target: IGF-1R, insulin-like growth factor 1 receptor (human) (UniProt P08069); test: herstatin ELISA of Int8 bound to hIGF-1R-3T3 cells
[9] = target: IGF-1R, insulin-like growth factor 1 receptor (human) (UniProt P08069); test: pull-down and saturation binding to IGF-IR 3T3 cells
[10] = target: IGF-1R, insulin-like growth factor 1 receptor (human) (UniProt P08069); test: pull-down, Int8 on Protein S Sepharose, Western blot (FIG. 1A)
[11] = target: IGF-1R, insulin-like growth factor 1 receptor (human) (UniProt P08069); test: saturation binding to receptor-expressing cells, herstatin ELISA
[12] = target: IGF-1R, insulin-like growth factor 1 receptor (human) (UniProt P08069); test: saturation binding to IGF-IR 3T3 cells, herstatin ELISA (FIG. 1B)
[13] = target: IGF-1R, insulin-like growth factor 1 receptor (human) (UniProt P08069); test: pull-down from hIGFR-1-3T3 cell extracts, Western blot (FIG. 3A, bottom panel)

Measured: binding

B1: RBD Int8 polypeptide (intron 8-encoded receptor binding domain of herstatin, expressed as a bacterial peptide) (peptide)
chain: GTHSLPPRPAAVPVPLRMQPGPAHPVLSFLRPSWDLVSAFYSLPLAPLSPTSVPISPVSVGRGPDPDAHVAVDLSRYEG
notes: Purified from BL-21 bacteria; also called Int8 RBD polypeptide; Int8 peptide; not shown: pET 30 vector-encoded tags (His tag used for nickel purification, S-protein tag used for immobilisation)
binds: all assays above
